Data published in article PMC7819943, “Rice protein-binding microarrays: a tool to detect cis-acting elements near promoter regions in rice”.
The list shows a part of the results.

Each sequence was assayed against T1, OsSMF1 (Oryza sativa, UniProt Q6ZLB0 1-436) (assay: protein-binding microarray (RPBM); PBS, 2% BSA, 51.3 ng/ul salmon testes DNA, 50 uM zinc acetate, 200 nM TF, 25 C, 1 h; high values mean tight binding). Settings: protein: recombinant; tags: N-terminal polyhistidine and DsRed monomer fusion (pET32a); chain copies: 2; label: CyDye5-dUTP incorporated in the synthesized complementary strand; 3' TTTTT single-stranded linker to array surface; dsDNA, one strand shown.
T1 sequence: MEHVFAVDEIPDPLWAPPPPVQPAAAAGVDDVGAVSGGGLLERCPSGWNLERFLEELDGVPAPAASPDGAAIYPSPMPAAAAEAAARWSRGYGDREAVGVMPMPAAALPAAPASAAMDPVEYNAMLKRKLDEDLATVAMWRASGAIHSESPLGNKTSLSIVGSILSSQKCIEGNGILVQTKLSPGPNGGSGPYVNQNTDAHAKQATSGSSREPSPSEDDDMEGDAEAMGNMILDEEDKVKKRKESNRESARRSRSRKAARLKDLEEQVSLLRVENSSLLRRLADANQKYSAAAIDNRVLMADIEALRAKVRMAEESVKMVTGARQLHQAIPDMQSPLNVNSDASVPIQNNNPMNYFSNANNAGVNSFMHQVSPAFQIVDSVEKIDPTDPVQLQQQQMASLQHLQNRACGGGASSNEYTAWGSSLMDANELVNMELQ
How it was run: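 Binding signal is reported as fluorescence intensity per feature (arbitrary units) from an Axon 4000B scanner. Incubation used 200 nM of each Ni–NTA-purified, N-terminally polyhistidine- and DsRed-fused transcription factor from E. coli BL21-CodonPlus on a double-stranded custom Agilent array for 1 h at 25 °C, with 50 µM zinc acetate in the buffer, followed by washing.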

| Sequence | binding signal |
| --- | --- |
| TGAAAGCATCCGGTAATTGGCAACTTTGAATGCATCGTTTCGGAGTCACCTAGTGCAG | 3790 fluorescence intensity (a.u.) |
| AGTGGTAAACGATGTATCCATTGACAACGAGACAACTGTGCGGAGTCACCTAGTGCAG | 3330 fluorescence intensity (a.u.) |
| AAGAGGGTGGGTTGTTGGGGAGAGGGGAGGGAGGAGGATTCGGAGTCACCTAGTGCAG | 3320 fluorescence intensity (a.u.) |
| TATAGTCGCTGTCATCTTACACGTGTATATTACACGTGTACGGAGTCACCTAGTGCAG | 10100 fluorescence intensity (a.u.) |
| AAAACAGAAAGCAAAGTTGGTGGCGCCATCAAACATCACACGGAGTCACCTAGTGCAG | 3540 fluorescence intensity (a.u.) |
| CATACATGCATGTACTATGAATTCTTGACCTATTAGTAATCGGAGTCACCTAGTGCAG | 20100 fluorescence intensity (a.u.) |
| CAAAATGATTTGGTGAATCTAGCCAGCACATACCAATACGCGGAGTCACCTAGTGCAG | 3550 fluorescence intensity (a.u.) |
| AAGAAAAGAAGACTAAAATGAGTCACCACTTCCATTCTAACGGAGTCACCTAGTGCAG | 11300 fluorescence intensity (a.u.) |
| TGATCCAAAAGAAACATCGCACGTTTGCAGATGCTGTCTCCGGAGTCACCTAGTGCAG | 16700 fluorescence intensity (a.u.) |
| CCCTTCCGACATCCGGTCAAACGTCCGATGTGACACCTAACGGAGTCACCTAGTGCAG | 3700 fluorescence intensity (a.u.) |
| AGTGATGATCCTTAGCATCATGGTGACCGCTCATCAGCCACGGAGTCACCTAGTGCAG | 3240 fluorescence intensity (a.u.) |
| AGCGCGTCCACGTGCTCCCGGCGTGCGGGCACAGCTCCCGCGGAGTCACCTAGTGCAG | 4760 fluorescence intensity (a.u.) |
| TCTTTTATGCTGCAATGGTAATTAGAAGAATATCGATCATCGGAGTCACCTAGTGCAG | 3180 fluorescence intensity (a.u.) |
| TCTCCGTTCAGTGAATTATGTAATAAGTTGCTGTAACTTGCGGAGTCACCTAGTGCAG | 3350 fluorescence intensity (a.u.) |
| ACTTGCAGGTGACGCACACGTACGTACTCACACAGCTAAGCGGAGTCACCTAGTGCAG | 7080 fluorescence intensity (a.u.) |
| AAACTCGGTCACTTAAGGATAAACTTCATTTAGTAGATTGCGGAGTCACCTAGTGCAG | 3650 fluorescence intensity (a.u.) |
| GCTAATCAAATCCATCATGAGAGACACGCTCCGCTGGACTCGGAGTCACCTAGTGCAG | 3290 fluorescence intensity (a.u.) |
| TATAGTGTAGGGATGAGATGACGTGGCTTCACCACAACACCGGAGTCACCTAGTGCAG | 15300 fluorescence intensity (a.u.) |
| AAATTTGTACCATCTTGTTGTCCATCATTCTTGACAAGAGCGGAGTCACCTAGTGCAG | 3280 fluorescence intensity (a.u.) |
| TCCTCGCCTGCTTCCGTTGAGCCAGTCAGCCTCCTCCCTTCGGAGTCACCTAGTGCAG | 3160 fluorescence intensity (a.u.) |
| TTCGTAAAGGTTGCCGGTGACGTTAGAACATTGCTCACCTCGGAGTCACCTAGTGCAG | 4700 fluorescence intensity (a.u.) |
| GATCAATGTCGCCTGTCAGCTCAGTTCAGTTTTACCTCCCCGGAGTCACCTAGTGCAG | 3870 fluorescence intensity (a.u.) |
| GTGTGGTCTGTGGAGTGTATGGTTGATTTGGTTGGTAATTCGGAGTCACCTAGTGCAG | 18000 fluorescence intensity (a.u.) |
| ATCCCTACGTAAACCCGGGACGCTAGGTGTATTCTTTATTCGGAGTCACCTAGTGCAG | 16800 fluorescence intensity (a.u.) |
| ACCGGTGACCTGTAGCCACGCGCGTGGTAAATACGAAGCCCGGAGTCACCTAGTGCAG | 3870 fluorescence intensity (a.u.) |
| AAGGTGATAGGGTCTCAAGTACGTCATTATGAATGTAAATCGGAGTCACCTAGTGCAG | 3910 fluorescence intensity (a.u.) |
| TCGAACTTCATCGAAGACGATGATGCAAGCACAGGTAGCTCGGAGTCACCTAGTGCAG | 5020 fluorescence intensity (a.u.) |

| Sequence | binding signal |
| --- | --- |
| GGTCAGATTCTTTCGCTGACGGAATCGCCATTATTATTTCCGGAGTCACCTAGTGCAG | 20400 fluorescence intensity (a.u.) |
| TTCGACACAGTCATACGTGAGTCGGATGGAGTTAGGTCTGCGGAGTCACCTAGTGCAG | 4150 fluorescence intensity (a.u.) |
| CTCAAGGATCTGCTTCACCGCAGCGCTGATGCTGCCAAGTCGGAGTCACCTAGTGCAG | 3470 fluorescence intensity (a.u.) |
| CATACAGGGATGAGGTGTGACTGAGGTGGCTGTCATGTAGCGGAGTCACCTAGTGCAG | 5610 fluorescence intensity (a.u.) |
| AAACGTGCAGTACAACGTGCACACGTATGTCGGTATGTGTCGGAGTCACCTAGTGCAG | 6500 fluorescence intensity (a.u.) |
| AGTGCTACTACTACGTGGAGAGCAGAGCACTAGCAGAGTGCGGAGTCACCTAGTGCAG | 3320 fluorescence intensity (a.u.) |
| AAGCAGCATATTCTATATATTGCCACGTTCACCACATAGACGGAGTCACCTAGTGCAG | 5970 fluorescence intensity (a.u.) |
| TATAACCATTACGTACTCCACGACAGCTCCTCTGCGACGCCGGAGTCACCTAGTGCAG | 3860 fluorescence intensity (a.u.) |
| ATCGCGGATCAGGCGTAGAACGTGGCATGTTTCCAGTATCCGGAGTCACCTAGTGCAG | 6200 fluorescence intensity (a.u.) |
| GTGATGCTGATGACACACTGGCACACGCGCACACACACAGCGGAGTCACCTAGTGCAG | 6650 fluorescence intensity (a.u.) |
| ACTCTGTACTGCGCCGTCACTCGTAGACTACTCCATCCCGCGGAGTCACCTAGTGCAG | 4340 fluorescence intensity (a.u.) |
| TTGCACGCGGATCTCCACACTCCGCACCGCCGGAACCCTACGGAGTCACCTAGTGCAG | 3260 fluorescence intensity (a.u.) |
| CTCCTCTTCGTTATCCCGTCGCCACCTCGCCCCATCACCCCGGAGTCACCTAGTGCAG | 5340 fluorescence intensity (a.u.) |
| GCGCGAAGGCGAAGCGGCCGTGGACGCATGCGAGCCTTGACGGAGTCACCTAGTGCAG | 3540 fluorescence intensity (a.u.) |
| CGCTTCCTGTTGTGATTATGTAATCTTGTATTCTTGTTGACGGAGTCACCTAGTGCAG | 3540 fluorescence intensity (a.u.) |
| CGCGGCCACGCGCGGTCGGCGAGGCCACCGTGTACGCCGGCGGAGTCACCTAGTGCAG | 3280 fluorescence intensity (a.u.) |
| GTGCAAAGCTCCCAGTCTCATTGTTGCGGCAACGTGGCTTCGGAGTCACCTAGTGCAG | 3700 fluorescence intensity (a.u.) |
| GGTTTTATCTGACGTGGCTGCTGAGTCAGTGTGGGACCCACGGAGTCACCTAGTGCAG | 30900 fluorescence intensity (a.u.) |
| GCGCCGCCGGCGCCGCGGCGCGGCCGATGACCACGCCGGACGGAGTCACCTAGTGCAG | 3490 fluorescence intensity (a.u.) |
| TACGCGCGTCGTTGACACGCCAGCTGATGCATTACATGTTCGGAGTCACCTAGTGCAG | 5620 fluorescence intensity (a.u.) |
| ACATAGTAATTTTGCATGGCCATCATCTTGCCCTCCTATACGGAGTCACCTAGTGCAG | 3160 fluorescence intensity (a.u.) |
| CGCCGACGACGACGAGGTCTACCCTCCGCTGACCACGATGCGGAGTCACCTAGTGCAG | 3660 fluorescence intensity (a.u.) |
| TGGTTGGTGGTGTCTGTGCGTGTTCCGGCGAGTGGTCGGTCGGAGTCACCTAGTGCAG | 4210 fluorescence intensity (a.u.) |
| CACTCTGCTTTGCCTCGAATATCTCGGCAGGTAGACGTCACGGAGTCACCTAGTGCAG | 4190 fluorescence intensity (a.u.) |
| TCACGGCCGCCTCCGCCATCTGCACAACCTCGCCGCCGCCCGGAGTCACCTAGTGCAG | 65500 fluorescence intensity (a.u.) |
| TGCACGGCCAGCACCGACGTCGGCAGCTTGCCCATGTCGACGGAGTCACCTAGTGCAG | 3820 fluorescence intensity (a.u.) |
| GCTATAATATATTGCAGCAGCAGCAGCAGTGGTGGTGGTGCGGAGTCACCTAGTGCAG | 3360 fluorescence intensity (a.u.) |

Look-ups from above.
Value for TATAACCATTACGTACTCCACGACAGCTCCTCTGCGACGCCGGAGTCACCTAGTGCAG under binding signal: 3860 fluorescence intensity (a.u.)
Value for AGTGCTACTACTACGTGGAGAGCAGAGCACTAGCAGAGTGCGGAGTCACCTAGTGCAG under binding signal: 3320 fluorescence intensity (a.u.)
Value for CGCTTCCTGTTGTGATTATGTAATCTTGTATTCTTGTTGACGGAGTCACCTAGTGCAG under binding signal: 3540 fluorescence intensity (a.u.)
Value for CTCAAGGATCTGCTTCACCGCAGCGCTGATGCTGCCAAGTCGGAGTCACCTAGTGCAG under binding signal: 3470 fluorescence intensity (a.u.)
